Laboratory results taken from the supplement of paper PMC12067093, “Discovery and optimisation of a covalent ligand for TRIM25 and its application to targeted protein ubiquitination” (Chemical Science, 2025).
Some of the results follow.

Compound: CC1Cc2ccccc2N1C(=O)C1CCCN(C1)C(=O)CCl (mixture of isomers) [TRIM25 ligand 11 (diastereomer mixture)]
Test: probe-labelled cysteine peptide fold change vs DMSO (competition) (log2 fold change); higher = less target engagement (more negative = stronger competition)
Conditions: THP-1, incubation time: 4 h
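Also: competitive chemoproteomic profiling in live THP-1 cells with an iodoacetamide desthiobiotin (IA-DTB) probe, comparing probe-labelled peptide intensities in compound-treated cells against DMSO-treated controls.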

HMOX2_P30519_265_CPFYAAEQDK (UniProt P30519)
probe-labelled cysteine peptide fold change (10 µM): 0.185 | probe-labelled cysteine peptide fold change (50 µM): 0.0949

HNRNPL_P14866_581_LCFSTAQHAS (UniProt P14866)
probe-labelled cysteine peptide fold change (10 µM): 0.0448 | probe-labelled cysteine peptide fold change (50 µM): 0.0708

HSPA4L_O95757_417+421_TSFEDGSGECEVFCK (UniProt O95757)
probe-labelled cysteine peptide fold change (10 µM): 0.0475 | probe-labelled cysteine peptide fold change (50 µM): -0.0884

HSPA2_P54652_191_GCAGGEK (UniProt P54652)
probe-labelled cysteine peptide fold change (10 µM): -0.0761 | probe-labelled cysteine peptide fold change (50 µM): -0.123

HNRNPUL2_Q1KMD3_405_ALLPHVLCK (UniProt Q1KMD3)
probe-labelled cysteine peptide fold change (10 µM): -0.0475 | probe-labelled cysteine peptide fold change (50 µM): 0.00219

HPCAL1_P37235_38_DCPTGHLTVDEFK (UniProt P37235)
probe-labelled cysteine peptide fold change (10 µM): 0.137 | probe-labelled cysteine peptide fold change (50 µM): 0.0406

HTATSF1_O43719_328_DPEEADYCIQTLDGR (UniProt O43719)
probe-labelled cysteine peptide fold change (10 µM): 0.0376 | probe-labelled cysteine peptide fold change (50 µM): 0.141

HMGCR_P04035_600_ACDSAEVK (UniProt P04035)
probe-labelled cysteine peptide fold change (10 µM): -0.442 | probe-labelled cysteine peptide fold change (50 µM): 0.128

HSPH1_Q92598_796_ELNNTCEPVVTQPK (UniProt Q92598)
probe-labelled cysteine peptide fold change (10 µM): -0.0538 | probe-labelled cysteine peptide fold change (50 µM): 0.0693

HSPBAP1_Q96EW2_293_MLVCALK (UniProt Q96EW2)
probe-labelled cysteine peptide fold change (10 µM): 0.232 | probe-labelled cysteine peptide fold change (50 µM): 0.109

HSPH1_Q92598_34_CTPSVISFGSK (UniProt Q92598)
probe-labelled cysteine peptide fold change (10 µM): -0.12 | probe-labelled cysteine peptide fold change (50 µM): -0.058

HNRNPUL1_Q9BUJ2_421_SKAECEILMMVGLPAAGK (UniProt Q9BUJ2)
probe-labelled cysteine peptide fold change (10 µM): -0.14 | probe-labelled cysteine peptide fold change (50 µM): -0.0295

HNRNPH1_P31943_22_GLPWSCSADEVQR (UniProt P31943)
probe-labelled cysteine peptide fold change (10 µM): 0.0841 | probe-labelled cysteine peptide fold change (50 µM): -0.0383

HMGXB4_Q9UGU5_418_NMSAYQVFCK (UniProt Q9UGU5)
probe-labelled cysteine peptide fold change (10 µM): 0.131 | probe-labelled cysteine peptide fold change (50 µM): 0.196

HSF1_Q00613_103_DDTEFQHPCFLR (UniProt Q00613)
probe-labelled cysteine peptide fold change (10 µM): 0.0641 | probe-labelled cysteine peptide fold change (50 µM): -0.143

HSPA4_P34932_779_ELTSTCSPIISKPKPK (UniProt P34932)
probe-labelled cysteine peptide fold change (10 µM): -0.489 | probe-labelled cysteine peptide fold change (50 µM): -0.494

HSPA4_P34932_140+146_KPVVDCVVSVPCFYTDAERR (UniProt P34932)
probe-labelled cysteine peptide fold change (10 µM): -0.0726 | probe-labelled cysteine peptide fold change (50 µM): -0.147

HNRNPU_Q00839_389_TCNCETEDYGEK (UniProt Q00839)
probe-labelled cysteine peptide fold change (10 µM): 0.184 | probe-labelled cysteine peptide fold change (50 µM): 0.314

HSPA8_P11142_17_GPAVGIDLGTTYSCVGVFQHGK (UniProt P11142)
probe-labelled cysteine peptide fold change (10 µM): -0.00147 | probe-labelled cysteine peptide fold change (50 µM): 0.0553

HSPA8_P11142_17_SKGPAVGIDLGTTYSCVGVFQHGK (UniProt P11142)
probe-labelled cysteine peptide fold change (10 µM): -0.203 | probe-labelled cysteine peptide fold change (50 µM): -0.105

HSPA9_P38646_66_GAVVGIDLGTTNSCVAVMEGK (UniProt P38646)
probe-labelled cysteine peptide fold change (10 µM): 0.0277 | probe-labelled cysteine peptide fold change (50 µM): -0.133

HSD17B4_P51659_373_FIYEGSSDFSCLPTFGVIIGQK (UniProt P51659)
probe-labelled cysteine peptide fold change (10 µM): 0.139 | probe-labelled cysteine peptide fold change (50 µM): 0.054

HSF1_Q00613_103_VVHIEQGGLVKPERDDTEFQHPCFLR (UniProt Q00613)
probe-labelled cysteine peptide fold change (10 µM): 0.0759 | probe-labelled cysteine peptide fold change (50 µM): 0.0283

HSPA4_P34932_245_KFDEVLVNHFCEEFGKK (UniProt P34932)
probe-labelled cysteine peptide fold change (10 µM): -0.437 | probe-labelled cysteine peptide fold change (50 µM): -0.192

HSPA4_P34932_779_ELTSTCSPIISKPK (UniProt P34932)
probe-labelled cysteine peptide fold change (10 µM): -0.26 | probe-labelled cysteine peptide fold change (50 µM): -0.334

HNRNPU_Q00839_497_KDCEVVMMIGLPGAGK (UniProt Q00839)
probe-labelled cysteine peptide fold change (10 µM): -0.0106 | probe-labelled cysteine peptide fold change (50 µM): -0.106

HNRNPA1_P09651_175_YHTVNGHNCEVR (UniProt P09651)
probe-labelled cysteine peptide fold change (10 µM): 0.0508 | probe-labelled cysteine peptide fold change (50 µM): -0.0151

HSPA9_P38646_317_CELSSSVQTDINLPYLTMDSSGPK (UniProt P38646)
probe-labelled cysteine peptide fold change (10 µM): 0.00978 | probe-labelled cysteine peptide fold change (50 µM): -0.124

HPS5_Q9UPZ3_775_STSGHVDHTLQQYSPEILACQFLK (UniProt Q9UPZ3)
probe-labelled cysteine peptide fold change (10 µM): 0.0447 | probe-labelled cysteine peptide fold change (50 µM): 0.00925

HSCB_Q8IWL3_79_ALQAPDPTRDYFSLMDCNR (UniProt Q8IWL3)
probe-labelled cysteine peptide fold change (10 µM): -0.523 | probe-labelled cysteine peptide fold change (50 µM): -0.0316

HNRNPA3_P51991_64_WGTLTDCVVMR (UniProt P51991)
probe-labelled cysteine peptide fold change (10 µM): -0.152 | probe-labelled cysteine peptide fold change (50 µM): -0.0572

HNRNPD_Q14103_226_GFCFITFK (UniProt Q14103)
probe-labelled cysteine peptide fold change (10 µM): -0.0603 | probe-labelled cysteine peptide fold change (50 µM): -0.0257

HNRNPA0_Q13151_49_CFGFVTYSNVEEADAAMAASPHAVDGNTVELK (UniProt Q13151)
probe-labelled cysteine peptide fold change (10 µM): 0.247 | probe-labelled cysteine peptide fold change (50 µM): -0.127

HNRNPU_Q00839_335_VCFEMK (UniProt Q00839)
probe-labelled cysteine peptide fold change (10 µM): 0.159 | probe-labelled cysteine peptide fold change (50 µM): 0.302

HPS1_Q92902_180_LIHPQLCELCIEALER (UniProt Q92902)
probe-labelled cysteine peptide fold change (10 µM): 0.0295 | probe-labelled cysteine peptide fold change (50 µM): -0.0241

HMMR_O75330_242_LLEYIEEISCASDQVEK (UniProt O75330)
probe-labelled cysteine peptide fold change (10 µM): -0.148 | probe-labelled cysteine peptide fold change (50 µM): 0.0284

HSPH1_Q92598_796_ELNNTCEPVVTQPKPK (UniProt Q92598)
probe-labelled cysteine peptide fold change (10 µM): -0.444 | probe-labelled cysteine peptide fold change (50 µM): -0.534

HNRNPUL1_Q9BUJ2_377_NCAVEFNFGQR (UniProt Q9BUJ2)
probe-labelled cysteine peptide fold change (10 µM): 0.0728 | probe-labelled cysteine peptide fold change (50 µM): -0.00236
